Our source for the step yield values is patent publication US20200054764A1 (priority 2016, published 2020).

The nature of this series: general procedure: solution-phase peptide synthesis; 2-(7-azabenzotriazol)-N,N,N',N'-tetramethyluronium hexafluorophosphate / N,N-dii. The settings on record: late stage modification step.

“(S)-2-((2R,3R)-3-((1S,3S,5S)-2-((3R,4S,5S)-4-((S)—N,3-dimethyl-2-((S)-3-methyl-2-(methylamino)butanamide)butanamide)-3-methoxy-5-methylheptanoyl)-2-azabicyclo[3.1.0]hexane-3-yl)-3-methoxy-2-methylpropanamide)-3-(2-fluorophenyl)propionic acid” returned a step yield of 20%.
